Measurements: patent publication US20240043943A1, “METHODS AND COMPOSITIONS FOR PROTEASE REPORTER ASSAYS AND MODULATORS” (712 NORTH, INC., priority 2021, published 2024)
Entries after “also recorded” stand apart in the source; their conditions may differ. At least one structure is not confirmed: it was looked up by name or label, or the drawing left a doubt. Some compounds share one wording; it may come from a single statement.

Experiments:
OMA1 protease [1] = biological target: T1, OMA1 protease (Homo sapiens, UniProt Q96E52); assay: Rep#15 / Luke-S1 OMA1 reporter bioluminescence assay in Hek293T cells; assay type: cell-based; design: The OMA1 enzyme is dormant under physiological cell culture conditions in these cells; endogenous in cells; host or cells: Hek293T cells, transiently or stably (Luke-S1 line, ATCC PTA-127022) expressing reporter #15
T1 sequence (Q96E52 144-524): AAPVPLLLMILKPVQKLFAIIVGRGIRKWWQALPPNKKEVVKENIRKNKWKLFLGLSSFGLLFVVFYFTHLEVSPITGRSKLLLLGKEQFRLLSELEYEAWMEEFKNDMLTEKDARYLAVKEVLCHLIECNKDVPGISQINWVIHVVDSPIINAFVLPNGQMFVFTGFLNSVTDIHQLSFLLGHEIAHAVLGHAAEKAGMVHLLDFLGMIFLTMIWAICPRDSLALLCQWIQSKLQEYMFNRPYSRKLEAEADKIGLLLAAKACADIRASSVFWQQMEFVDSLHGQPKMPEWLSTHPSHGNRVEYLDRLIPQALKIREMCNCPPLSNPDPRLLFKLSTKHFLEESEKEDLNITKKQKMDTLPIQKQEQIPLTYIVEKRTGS
Excerpt: (§1) Example 1 provides a nonlimiting example of generation and use of a reporter of present invention and illustrates its function. To this end, generation and use of reporter gene #01 (SEQ ID NO: 01) and reporter gene #15 (SEQ ID NO: 15) are described and their function compared to each other. The general design of a reporter of present invention is illustrated in FIG. 1A and its working principle in FIG. 1B. A reporter in general, and reporter gene #01 and reporter gene #15 in particular, can be generated as follows. DNA sequences of a reporter may be codon-optimized in silico or by any other way for expression in a suitable host. DNA sequences of reporter genes #01 and #15 were codon-optimized for expression in humans (SEQ ID NO: 02 and SEQ ID NO: 16, respectively). […] After 30 minutes, the OptiMEM cell-culture media was replaced with luciferase substrate (furimazine, Promega) diluted 1:100 in OptiMEM, and bioluminescence was measured with a Fluoroskan Ascent FL (Thermo Scientific) using a 517 nm single-pass filter and 200 milliseconds integration time. […]
Example 5 illustrates how mitochondrial toxicity can be measured with reporter and assays of present invention. […] Hek293T cells expressing reporter #01 and #15 were exposed to CCCP, tipranavir and sorafenib (in OptiMEM) for 30 minutes before the medium was replaced with furimazine (1:100), and bioluminescence measured. […]

OMA1 protease [2] = biological target: T1, OMA1 protease; assay: Rep#01 OMA1 reporter bioluminescence assay in Hek293T cells; assay type: cell-based; design: The OMA1 enzyme is dormant under physiological cell culture conditions in these cells; endogenous in cells; host or cells: Hek293T cells, transiently or stably (Luke-S1 line, ATCC PTA-127022) expressing reporter #15; settings: 30 minutes exposure, CCCP 10 μM
Excerpt: as §1
Example 5 illustrates how mitochondrial toxicity can be measured with reporter and assays of present invention. […] Hek293T cells expressing reporter #01 and #15 were exposed to CCCP, tipranavir and sorafenib (in OptiMEM) for 30 minutes before the medium was replaced with furimazine (1:100), and bioluminescence measured.

Compound: CCC[C@@]1(CCc2ccccc2)CC(O)=C([C@H](CC)c2cccc(NS(=O)(=O)c3ccc(C(F)(F)F)cn3)c2)C(=O)O1 [tipranavir]
- bioluminescence signal of reporter #15 (OMA1 protease [1]; Hek293T, 30 minutes exposure, CCCP 10 μM): deactivated; also recorded: significantly reduced bioluminescence
- OMA1 modulating properties (OMA1 protease [1]; drugs identified with the OMA1 assays (FIG. 17, FIG. 10)): OMA1 modulating properties
- bioluminescence signal of reporter #01 (OMA1 protease [2]): deactivated; also recorded: significantly reduced bioluminescence
